These are yes or no findings as the source states them, for the method shown. Some entries that bind do so weakly or less than the wild type.

Amino acid sequences for entries named in this document (tags omitted). Residues count along the entry.
UniProt Q08722, residues 19-139: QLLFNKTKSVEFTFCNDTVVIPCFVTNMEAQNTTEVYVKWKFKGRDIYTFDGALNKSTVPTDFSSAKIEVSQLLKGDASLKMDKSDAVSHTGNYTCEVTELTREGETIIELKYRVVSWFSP

The target of this experiment is Tag1-CD47 (UniProt Q08722). Kind of experiment: HTRF CD47/SIRPα binding assay (Cisbio): blocking of Tag2-SIRPa binding to Tag1-CD47; axis numbers -3 to 3 read as log10 of nM. In general terms: Time-resolved FRET reads energy transfer from a long-lived donor to a nearby acceptor.

B1: 34C5 (antibody, V domains shown)
VH: QVQLVQSGAEVKKPGSSVKVSCKASGYTFSSYYMHWVRQAPGQGLEWMGEINPNNARINFNEKFKTRVTLTVDKSTSTAYMELSSLRSEDTAVYYCTRGYYRYGAWFGYWGQGTLVTVSS
VL: DIQMTQSPSSLSASVGDRVTITCRASQDISDYLNWYQQKPGKAPKLLIYYISRLHSGVPSRFSGSGSGTDYTLTISSLQPEDFATYYCQQGHTLPWTFGGGTKVEIK
Take B1: the binding result is “binds”.

For the origin of these results see patent publication US20240209093A1.
